Test: Biocatalytic oxidation of primary diesel fuel followed by distillation
Conditions: oxidized by chloroperoxidase and hydrogen peroxide, distilled to a final temperature 50° C. lower than the original fraction
Protocol: After biocatalytic oxidation of the fossil fuel a second process of separation of oxidized organosulfur compounds is envisaged. Because the boiling points of sulfur compounds are incersed after biocatlytic oxidation to sulfoxides, it is possible to remove them by a single distillation. Oxidized sulfur compounds can be removed by decreasing the final distillation point. When primary diesel fuel containing 1.6% sulfur is distilled in order to obtain a 100% distillation at a temperature 50° C. lower than the original fraction, it produces a diesel fuel containing 1.27% of sulfur and 83% of the original hydrocarbons. […] Thus, a biocatalytic treatment of primary diesel oil with chloroperoxidase from Caldariomyces fumago, followed by a distillation is able to reduce the sulfur content by 80%.

B1: chloroperoxidase: chloroperoxidase (EC 1.11.1.10) from Caldariomyces fumago, hemoprotein biocatalyst (protein, UniProt P04963 21-319, looked up)
Chloroperoxidase: QEPGSGIGYPYDNNTLPYVAPGPTDSRAPCPALNALANHGYIPHDGRAISRETLQNAFLNHMGIANSVIELALTNAFVVCEYVTGSDCGDSLVNLTLLAEPHAFEHDHSFSRKDYKQGVANSNDFIDNRNFDAETFQTSLDVVAGKTHFDYADMNEIRLQRESLSNELDFPGWFTESKPIQNVESGFIFALVSDFNLPDNDENPLVRIDWWKYWFTNESFPYHLGWHPPSPAREIEFVTSASSAVLAASVTSTPSSLPSGAIGPGAEAVPLSFASTMTPFLLATNAPYYAQDPTLGPND
- sulfur content of distillate: 0.27%
- total hydrocarbons in distillate: 71%

— patent publication US6461859B1, “Enzymatic oxidation process for desulfurization of fossil fuels” (Instituto Mexicano del Petroleo, priority 1999, dated 2002)
